Assay results: the supplement of paper PMC12764529
± gives the half width of the 95% confidence interval. For many entries, trypsin and chymotrypsin gave values far apart.

How the values were obtained:
[1] = folding stability dG unfold from trypsin proteolysis; higher = more stable
How it was run: (§1)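 Mini-proteins designed to be under 80 residues and free of cysteine were carried in a PA-tagged cDNA display construct and digested with trypsin and with chymotrypsin. Each protease was applied at 11 threefold-diluted concentrations, alongside a no-protease condition, before sequencing. K50 came from Bayesian fitting of the sequencing counts, and unfolding free energy was obtained by comparing it with a sequence-predicted unfolded-state K50 and a shared folded-state K50, for each protease separately or for both together. Designs were retained only if their AlphaFold2 dimer inter-PAE exceeded 15.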

[2] = folding stability dG unfold from chymotrypsin proteolysis; higher = more stable
How it was run: as §1

[3] = folding stability dG unfold (combined trypsin and chymotrypsin); higher = more stable
How it was run: as §1

Sequence | folding stability dG unfold [1] [kcal/mol] | folding stability dG unfold [2] [kcal/mol] | folding stability dG unfold [3] [kcal/mol]
SAGGMPKPVTLPAVIELGAGPAIAVEEFPETGKLVFVFPPTHRIFVFDPNGKLVAEVDVPPDVPVSAVSAGG [r13_507_TrMRF] | 0.901 ± 0.053 | 0.973 ± 0.31 | 0.931 ± 0.15
SAGGSAGGSAGGGSMPVTERIPGSPSSVTTTTFPDGTVTTETTAGPPVTLSPAGGSTLVSAGGSAGGSAGGS [r10_664_JUSTAS] | 0.97 ± 0.073 | 1.09 ± 0.058 | 1.08 ± 0.11
SAGGSAGGSMIIRIKTENGEEIEIEAESEEEAKKAAEELKKELEEKGYKIEEVEIYEIPEEELSAGGSAGGS [r12_301_TrROS_Hall] | 1.13 ± 0.076 | 2.32 ± 0.13 | 2.05 ± 0.26
SAGGPDIKIKWKIEVNPDNGMIWLTMEIEVPNPNGDFYKVRADIYIPIVNPDDGKFPIFIMLEVEPVPSAGG [r13_715_TrROS] | 3.36 ± 0.3 | 4.74 ± 0.25 | 4.76 ± 0.2
SAGGKTIEIEVPKEEAEKIAKKLADELLEEAKKKGKKVKVTITIKNKDGSTYKIVFDSNGKIVKIEKISAGG [r13_965_TrROS_Hall] | 1.07 ± 0.061 | 3.74 ± 0.063 | 3.34 ± 0.18
SAGMTIEIENEETGETVTIEVNPEDKNKVYITYPNGEKKEMTLDEIAEKLGLSKEEIAKKIKIKKIKVVSAG [r5_156_TrROS_Hall] | 1.08 ± 0.096 | 3.74 ± 0.12 | 3.28 ± 0.16
MITLPNMSPEEVVKAIKEAAEAGDPLTVTVPLAPDRRAVVVAALRALPYVTEVRPLPDGSVIVEIDPALLGS [r1_324_JUSTAS] | 0.58 ± 0.048 | 3.522 ± 0.026 | 3.19 ± 0.062
SAGTITADDITEIEMQWDPGNGYVQIEIEFPNGYTVNAWMPNDKIEIEVWYPNGKKVEIEFEIKPPGASAGG [r19_121_TrROS] | 1.72 ± 0.22 | 2.74 ± 0.18 | 2.39 ± 0.38
SAGGSAGGSGTVTLTLTARFRFRVTRVERRDGKLTVTTVEVEVEVTLTLTLPAPARPDDPALRSAGGSAGGS [r12_713_TrROS_Hall] | 2.13 ± 0.065 | 5.26 ± 0.12 | 4.9 ± 0.16
SAGMISPKEAIELLKEGKEIHIYAPNPEDVEKFYNALRKELGLPKEEVEKIFEKVKIENIPADDPRFKKSAG [r5_368_TrMRF] | 0.287 ± 0.12 | 3.21 ± 0.035 | 2.69 ± 0.15
SAGGSAGGSNWYQFTIPFPIPPDEPVEIKLPDGWEIHEIPPNSGRITIYMPMNNMDAIKEAIGSAGGSAGGS [r12_476_TrROS] | 1.214 ± 0.012 | 1.01 ± 0.045 | 1.19 ± 0.056
SAGGSAGGKKIKVKEIEIEINGKKYKITIYPDGTIKIEFEDGSTITIKITNKDGSEITIEIKAPSAGGSAGG [r6_239_TrROS_Hall] | 1.78 ± 0.22 | 3.9 ± 0.27 | 3.33 ± 0.46
SAGGSAGGSAGGRRLRIRFLDPNGRVLAERELDLEVVVPPPPPRLWFRDPRTGRWYELSGSAGGSAGGSAGG [r17_348_TrMRF] | 0.701 ± 0.095 | 3.41 ± 0.034 | 2.4 ± 0.13
SAGGKPPKIKIETKTYYFGNYTLSEFKIEIPDTKVKAEAFLITPPDGKTYLIIKIGDKVIIIPLDKLSAGGS [r16_49_TrMRF] | 2.74 ± 0.18 | 4.85 ± 0.18 | 4.16 ± 0.4
SPIKINIEKDPEDPGTIKITFNYPDPQEARDFIRDIAEKLFGIKDMDVEHNPDNKTITHTIRLRPPGDPVSA [r9_1120_TrROS] | 1.85 ± 0.19 | 4.04 ± 0.15 | 3.51 ± 0.34
SAGGSAEEEKYYVLRVKIPVERKLPNGKVERVEVELTFVFKSKEDAEAAAEKLRELGFEVELVEKESAGGSA [r15_117_TrROS_Hall] | 3.35 ± 0.07 | 5.616 ± 0.047 | 5.52 ± 0.1
SAGGSMPKGQEVKIEIEHRRHNGRRYWRVSVEVPNGKDIEIPFDDPEEMPPEMKKQIENLAKEIVKSAGGSA [r2_17_TrROS] | 0.146 ± 0.11 | 1.11 ± 0.25 | 0.874 ± 0.26
SAGMEIEIEVEMSEEEAERLAKELAERLRELFPGVKVEVEVRVERRPDGRVRVRVRIRIEPLPPGEPLLSAG [r5_936_TrROS_Hall] | 4.75 ± 0.2 | 2.07 ± 0.044 | 3.9 ± 0.27
SAGGWWYRIKIEITFPNGKTHTYPIPGIRSVAEIKNHLREQGIDNPPNVPIEVKEIEPFPPVPPEDMKSAGG [r13_493_TrROS] | 0.969 ± 0.096 | 3.24 ± 0.065 | 2.62 ± 0.4
SAGGSAMKKGEKVKIKVKVKVYKKNKDGKWEKIKEIEIEMTLEEVKKIAENLPKDYKVEIVDIEIESAGGSA [r15_833_TrROS_Hall] | 1.28 ± 0.087 | 3.45 ± 0.08 | 2.77 ± 0.31
SAGGSAGGSAGGKKKPPPPKRVRLRLTLEFRLPDGLVVRLTAEFDLETNEITVTAEVRPLSAGGSAGGSAGG [r7_213_TrROS_Hall] | 1.63 ± 0.18 | 3.94 ± 0.2 | 3.72 ± 0.36

Quoted at random: two entries already listed.
Sequence | folding stability dG unfold [1] [kcal/mol] | folding stability dG unfold [2] [kcal/mol] | folding stability dG unfold [3] [kcal/mol]
SAGGSAGGSNWYQFTIPFPIPPDEPVEIKLPDGWEIHEIPPNSGRITIYMPMNNMDAIKEAIGSAGGSAGGS [r12_476_TrROS] | 1.214 ± 0.012 | 1.01 ± 0.045 | 1.19 ± 0.056
SAGGSAGGSAGGRRLRIRFLDPNGRVLAERELDLEVVVPPPPPRLWFRDPRTGRWYELSGSAGGSAGGSAGG [r17_348_TrMRF] | 0.701 ± 0.095 | 3.41 ± 0.034 | 2.4 ± 0.13
